Hit rate of the full screen: of about 52,000 sequences, about 210 (0.4%) were called active.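 How the source made its calls: active means gene whose silencing raises cell survival under the drug, median off-target-corrected z-score across its silencing RNAs 2 or more; inactive means the rest.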 The list shows a part of the results.
Assay: Resistance to Poly (ADP-Ribose) Polymerase inhibitor: Gene Identification via Genome-wide siRNA Screen
Conditions: mouse BRCA2 R2336H ES cells, olaparib, CellTiter-Glo viability; hits give high values
Summary of the method: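 Mouse BRCA2 R2336H ES cells were reverse-transfected with siRNA (20 nM final), treated at 48 h with 500 nM olaparib, and read by CellTiter-Glo after 72 h. Scores: MAD-based z per siRNA, median per gene, seed off-target correction.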
With GGGUCUUUCACUACGACAGTT against Vnn1 the z-score was inactive: 0.93.
In the case of GGAUGAACACUGUUACAAATT against Tusc3, the z-score is reported as inactive: 0.384.
For CCAGCUACGACGUAACUGATT against Rpl3l, the z-score was inactive: -1.28.
With GGUCCGAUUUGAUCAGCGUTT against Smpd2 the z-score was inactive: 0.744.
For GGACUUCAGCUCCAGGCUATT against Cdk5rap1, the z-score was inactive: -1.17.
With GCAAUACCACCAAGAAAUATT against Zcchc8 the z-score was inactive: 1.16.
With GGUAGAAACUGACCACAUATT against Pdcd8 the z-score was inactive: -0.48.
With GGAUAUUUAUUGUAUCCCATT against Col8a1 the z-score was inactive: -0.318.
In the case of GGAGCAGAAACUUGUCAAATT against Pik3c2g, the z-score is reported as inactive: 1.09.
In the case of “GGUCAAAGACUCUUCUGAUTT against 2810430M08Rik”, the z-score is reported as inactive: -0.729.
With GGACUUCUUAACCGCCCUGTT against Sirt5 the z-score was inactive: -1.03.
In the case of “CGGCCUUAUCCAGUUAUGATT against 1700019B16Rik”, the z-score is reported as inactive: -0.321.
In the case of GGCCCUAUUAGAGAUAAAATT against Robo3, the z-score is reported as inactive: -0.166.
For GGAGGAGUUCCAGAUCCACTT against Pald, the z-score was inactive: -0.913.
For GGUUCAGACAACUCAGUGGTT against Pbx1, the z-score was inactive: -2.38.
With GGGAUGGGACCAUCAAUCUTT against Cib1 the z-score was inactive: 1.25.
In the case of GCAAAUUAACAGAGUGUCCTT against Dnase1l2, the z-score is reported as inactive: -0.318.
In the case of GGCUCUUUCGAUUUCGGCATT against Unc50, the z-score is reported as inactive: -0.423.
In the case of GGAAUGAACCAUAUGUAGCTT against Kcnq3, the z-score is reported as inactive: 0.743.
In the case of GGAAACCAAACUGCUAUCUTT against Olfr1324, the z-score is reported as inactive: -0.0788.
For GGAGCUAGUUCUAAGCCCUTT against Nrm, the z-score was inactive: 0.7.
In the case of “GGUUAGGUCUAACCAUUGATT against A630005I04Rik”, the z-score is reported as inactive: -1.42.
In the case of GCCUCCAUUUCUUGGACGATT against Mpg, the z-score is reported as inactive: -1.36.
For GGAAACCAAGAUUUCUCAGTT against Tyro3, the z-score was inactive: 1.21.
In the case of CGAGAUUUGUAACAAGUCATT against Dr1, the z-score is reported as inactive: 1.81.
In the case of “CCAUGACUACAACACAUACTT against 1500032D16Rik”, the z-score is reported as inactive: -0.99.
In the case of GGAAGUCUCCUACAAUGCCTT against Paxip1, the z-score is reported as inactive: -0.92.
For GCUGAGCCGUGAGUUCAAUTT against Trp63, the z-score was inactive: 0.0322.
In the case of GCGACGAAGAUGUCCUGUUTT against Plxna2, the z-score is reported as inactive: -2.75.
For GCAACCAUCGAACUCAAGGTT against Smarca4, the z-score was inactive: -1.52.
With GGCCUCUUUGGAUCUAAGCTT against Nupl1 the z-score was inactive: -0.209.
For GCAGAUCUAUAACAUUACATT against Zfyve20, the z-score was inactive: -2.35.
For GGCUCUGUAUUAAAGAGUUTT against AI225782, the z-score was inactive: 0.11.
In the case of GCUCUAAAUGAACAUCUCATT against Snai3, the z-score is reported as inactive: 0.979.
For GGAGCUAGAGACAUUGUGCTT against Phf15, the z-score was inactive: 1.58.
For GGCCAAGGACAUUAUAAAUTT against Scly, the z-score was inactive: 0.729.
For GGACAUAACAUACAUCUCUTT against Sdf4, the z-score was inactive: 1.51.
With GGAAUCAAAUGACUAAGAATT against Mcl1 the z-score was inactive: -1.2.
For GGGUAACUAUUGGACUAACTT against Gabrq, the z-score was inactive: 0.269.
With “CGAUAAGAAAAGCUUGUUGTT against 6330412F12Rik” the z-score was inactive: -0.0564.
In the case of GAAGCCUCUCUAUGUGCACTT against V1rc19, the z-score is reported as inactive: -0.226.
In the case of GCGAAUGCAUGAAAACUCATT against AU019823, the z-score is reported as inactive: -0.494.
For GGUUCUACUGGAGUCCUGGTT against Cd6, the z-score was inactive: -0.982.
In the case of “GCUGCUGUGGCUUUUGUGGTT against 1190002L16Rik”, the z-score is reported as inactive: 0.656.
With GGUAGUGAAUGAACUCUUUTT against Bcl2l1 the z-score was inactive: -1.9.
For “GGAAAAGAAAAAGUUGGGCTT against 3100004P22Rik”, the z-score was inactive: 0.415.
With GGUAUAUUGCCAUAUGUAATT against Olfr731 the z-score was inactive: -1.01.
In the case of GCAACAAUUCUAACAGCUGTT against Tmhs, the z-score is reported as inactive: -0.349.
For GGAAAUCGUGCGUGGCUACTT against Phpt1, the z-score was inactive: 0.0394.
With GCACAAGCGAAGAAGUUUGTT against Ube2i the z-score was inactive: -1.33.
With “GCGGAUUGUCUUCCUAGACTT against 1500002O20Rik” the z-score was inactive: 1.34.
For “GCUGACCUAUUAUCAGAAGTT against 2610207F23Rik”, the z-score was inactive: 0.255.
For GCCAAUUUUGAACCACUACTT against Itga8, the z-score was inactive: 3.32.
With UUCCAGAAACUACCUGUGCTT against Adcy1 the z-score was inactive: 0.235.
With CCUCGAAUUUCAAUAUGCUTT against Ncam1 the z-score was inactive: 0.33.
In the case of GUCUUUCCCUAAAAACAGCTT against V1ra4, the z-score is reported as inactive: -0.639.
For GGCUCUGAAUAGUGGGCUGTT against Olfr974, the z-score was inactive: -1.16.
In the case of CGUUCCAAGGGAGAACACATT against Dab1, the z-score is reported as inactive: -0.542.
With GGAUCCUUCAGCAUUCUUATT against Egr2 the z-score was inactive: -0.406.
For GGUAUUAACUUUGACAAUCTT against Ncoa5, the z-score was inactive: -0.573.
In the case of GGAGUUUCUGGUGUGAUCCTT against Fkbp9, the z-score is reported as inactive: -1.01.
In the case of GCCAUCUUAAGUUGUAACUTT against Fgfr3, the z-score is reported as inactive: 0.68.
With AUGCCUAUACAAUUCUGUGTT against Olfr1167 the z-score was inactive: -0.807.
For GGCAGUGAAAGCAAAGCUGTT against Cldn7, the z-score was inactive: -0.838.
In the case of GGAGGCUUUCUUCAGAAUGTT against V1rh1, the z-score is reported as inactive: 0.988.
In the case of “GGAAUUGAACGUAGUAGAGTT against 1110019N10Rik”, the z-score is reported as inactive: -0.116.
In the case of GGAACAAAAACCAUUGUGATT against Gng7, the z-score is reported as inactive: 0.229.
For “GGCACUUAAAAGCCGUAUUTT against 4933440H19Rik”, the z-score was inactive: -1.24.
In the case of GGAGGUUGUCAAGUCUCCATT against Tnfrsf8, the z-score is reported as inactive: 0.138.
For AUGGACCAAGGAAAAGUGUTT against Olfr951, the z-score was inactive: -1.25.
In the case of GCAUUACGUAAGAAUGGUUTT against Eif5a, the z-score is reported as inactive: 0.469.
For GGAUUCUGAAGGAACUUAATT against Slc8a1, the z-score was inactive: -2.66.
In the case of GGUGGUUGUUGUCAAGGACTT against Rbm3, the z-score is reported as inactive: 0.0111.
With GCUGAUCCCUUGAGUGAAUTT against Rbm18 the z-score was inactive: -1.03.
With GGCUACACUGGAUAUUUUUTT against F12 the z-score was inactive: 0.194.
With GCAGAAGCGUGGCAUUGUATT against Ins2 the z-score was inactive: -1.07.
In the case of GGCUGUACCAAUCUGACACTT against Pvalb, the z-score is reported as inactive: 1.18.
With GGAGUUUGACAAGAAGUACTT against Dnclc1 the z-score was inactive: 1.32.
In the case of GCCAUAUAAGUGAAAAUCGTT against Gda, the z-score is reported as inactive: 0.821.
With “GCUAACCUUGUUUUACAAGTT against D030056L22” the z-score was inactive: 0.871.
With GCUUGGGUACUAUGUAACATT against Rbm8 the z-score was inactive: -0.982.
For CCAUUAGCCUUAAUGAUGUTT against BC048403, the z-score was inactive: -0.157.
With CGACCCUCUAAGGAUAUGCTT against Zfp456 the z-score was inactive: -0.812.
With CCAGUGAUUACAGAAUUACTT against A4galt the z-score was inactive: 1.83.
With GGAGCAUCUUCUAAAGUAUTT against Wdr1 the z-score was inactive: -1.14.
For GGUGGUGUUAAAAUAUACUTT against C77032, the z-score was inactive: -0.598.
With GGACUUACGAGAAAGCGUATT against Tacr1 the z-score was inactive: -2.16.
For GCUCACUUGAUUCUGGUAATT against Lmtn, the z-score was inactive: -1.25.
With GCCCUGGUCUAUUCUGACUTT against Gpr152 the z-score was inactive: -0.126.
With CGGAAUUGACCUAUUUGCATT against Mmp25 the z-score was inactive: 0.35.
With GGCCAACAUCAUUGAGGCGTT against Eif2b2 the z-score was inactive: -0.702.
With “GGCCUUAACUACUCUGAAGTT against B230365F16Rik” the z-score was inactive: 0.81.
In the case of GGCAGCUUUUUACACUAGUTT against V1rc24, the z-score is reported as inactive: 1.5.
In the case of “CUACUCAGGACAUGUCUCATT against 2610109H07Rik”, the z-score is reported as inactive: -0.802.
With CGUCAUUUCUCAUCCUGCUTT against Olfr76 the z-score was inactive: -0.154.
With CCAGUUUACGUGGAAAAAATT against Cox4i1 the z-score was inactive: -0.146.
In the case of “GGGUCUGGAAGAUUUCAAATT against 1700026P10Rik”, the z-score is reported as inactive: 0.507.
In the case of GCUGAUGAACGAAUACAACTT against Kcnk5, the z-score is reported as inactive: -0.89.
In the case of “CGUAGCUAAUCCGUAAAAGTT against 1700120K04Rik”, the z-score is reported as inactive: -0.891.
With GGGCUUCCAUCUUUCAUCCTT against Trex2 the z-score was inactive: 2.04.
With GCGAACGAGCCUUUAAGCUTT against Fnta the z-score was inactive: -0.404.
For GGAAUAUUGAUGUUUCAACTT against Brrn1, the z-score was inactive: -1.06.
For CUAGCAGGUUCAGAAUUUUTT against Olfr330, the z-score was inactive: -0.366.
With CCUUUUUGUGGAAGUCGUUTT against Car1 the z-score was inactive: -0.425.
In the case of GGAGGUAAACAUAACUUAUTT against Ereg, the z-score is reported as inactive: -0.429.

From PubChem BioAssay AID1347423 (Functional Genomics Laboratory (NCATS/FGL), 2020)
